{"sequences": {"note": "Chains of the proteins cited; added tags and fusions are not shown.", "UniProt P21926": "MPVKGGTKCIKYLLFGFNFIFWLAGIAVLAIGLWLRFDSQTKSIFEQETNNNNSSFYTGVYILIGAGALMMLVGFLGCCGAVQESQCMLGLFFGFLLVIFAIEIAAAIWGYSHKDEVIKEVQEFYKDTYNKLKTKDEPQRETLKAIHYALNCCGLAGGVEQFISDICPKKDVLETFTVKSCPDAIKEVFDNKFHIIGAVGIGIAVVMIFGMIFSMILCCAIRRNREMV"}, "source": "paper PMC5292664", "binders": {"B1": {"name": "endogenous CD81 (protein, UniProt P60033 1-236)", "chain": "MGVEGCTKCIKYLLFVFNFVFWLAGGVILGVALWLRHDPQTTNLLYLELGDKPAPNTFYVGIYILIAVGAVMMFVGFLGCYGAIQESQCLLGTFFTCLVILFACEVAAGIWGFVNKDQIAKDVKQFYDQALQQAVVDDDANNAKAVVKTFHETLDCCGSSTLTALTTSVLKNNLCPSGSNIISNLFKEDCHQKIDDLFSGKLYLIGIAAIVVAVIMIFEMILSMVLCCGIRNSSVY"}}, "target": "CD9-RFP (human) (UniProt P21926)", "assay": "co-IP; Jurkat E6.1 cells transfected with RFP constructs, lysed in HEPES buffer (25 mM HEPES, 150 mM NaCl, 5 mM MgCl2, pH 7.2) with 1% CHAPS; RFP-Trap_A agarose beads, 1 h at 4 °C; western blot for endogenous CD81 and RFP under nonreducing conditions; background from the Lifeact-RFP control subtracted", "note": "These are yes or no findings as the source states them, for the method shown. In cells and extracts the contact can be indirect. Some results given as binding are weak or reduced against the parent protein; the word gives no strength.", "data": [{"binder": "B1", "values": [{"measurement": "binding", "value": "binds"}]}]}
